Source: patent US20110045568A1, “METHOD FOR RESTORING BMP-RECEPTOR SIGNALING IN A CELL” (FREIE UNIVERSITÄT BERLIN, priority 2008, published 2011)

Molecular target: FLAG-Smad5 (transfected, 293T cells)
Assay: IP of cGKIβ from transfected 293T cells with or without BMP-2, immunoblot α-Smad1/5

binding: binds
B1: cGKIβ (cGMP-dependent protein kinase I, β isoform), overexpressed in C2C12 or 293T cells (enzyme)
chain: MGTLRDLQYALQEKIEELRQRDALIDELELELDQKDELIQKLQNELDKYRSVIRPATQQAQKQSASTLQGEPRTKRQAISAEPTAFDIQDLSHVTLPFYPKSPQSKDLIKEAILDNDFMKNLELSQIQEIVDCMYPVEYGKDSCIIKEGDVGSLVYVMEDGKVEVTKEGVKLCTMGPGKVFGELAILYNCTRTATVKTLVNVKLWAIDRQCFQTIMMRTGLIKHTEYMEFLKSVPTFQSLPEEILSKLADVLEETHYENGEYIIRQGARGDTFFIISKGTVNVTREDSPSEDPVFLRTLGKGDWFGEKALQGEDVRTANVIAAEAVTCLVIDRDSFKHLIGGLDDVSNKAYEDAEAKAKYEAEAAFFANLKLSDFNIIDTLGVGGFGRVELVQLKSEESKTFAMKILKKRHIVDTRQQEHIRSEKQIMQGAHSDFIVRLYRTFKDSKYLYMLMEACLGGELWTILRDRGSFEDSTTRFYTACVVEAFAYLHSKGIIYRDLKPENLILDHRGYAKLVDFGFAKKIGFGKKTWTFCGTPEYVAPEIILNKGHDISADYWSLGILMYELLTGSPPFSGPDPMKTYNIILRGIDMIEFPKKIAKNAANLIKKLCRDNPSERLGNLKNGVKDIQKHKWFEGFNWEGLRKGTLTPPIIPSVASPTDTSNFDSFPEDNDEPPPDDNSGWDIDF

These are yes or no findings as the source states them, for the method shown. Binding calls can cover weak binding; strength is not graded here.
